The source of these data is paper PMC7819943, “Rice protein-binding microarrays: a tool to detect cis-acting elements near promoter regions in rice”.

This is one part of the list.

In the assay the target is T1, OsSMF1 (Oryza sativa, UniProt Q6ZLB0 1-436).
T1 sequence: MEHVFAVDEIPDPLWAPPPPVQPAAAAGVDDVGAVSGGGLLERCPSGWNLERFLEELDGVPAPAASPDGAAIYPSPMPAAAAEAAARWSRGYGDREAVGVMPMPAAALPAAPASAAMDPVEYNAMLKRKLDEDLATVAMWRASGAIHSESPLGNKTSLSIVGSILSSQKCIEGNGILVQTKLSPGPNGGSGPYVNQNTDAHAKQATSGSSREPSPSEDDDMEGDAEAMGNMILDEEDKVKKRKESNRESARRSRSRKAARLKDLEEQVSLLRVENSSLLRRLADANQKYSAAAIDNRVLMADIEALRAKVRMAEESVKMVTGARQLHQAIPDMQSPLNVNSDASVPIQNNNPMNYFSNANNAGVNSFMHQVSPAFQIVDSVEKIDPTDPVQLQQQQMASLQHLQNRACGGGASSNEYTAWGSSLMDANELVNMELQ
In words: protein-binding microarray (RPBM); PBS, 2% BSA, 51.3 ng/ul salmon testes DNA, 50 uM zinc acetate, 200 nM TF, 25 C, 1 h; high values mean tight binding. To be noted: protein: recombinant; tags: N-terminal polyhistidine and DsRed monomer fusion (pET32a); chain copies: 2; label: CyDye5-dUTP incorporated in the synthesized complementary strand; 3' TTTTT single-stranded linker to array surface; dsDNA, one strand shown. Summed up:
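The binding signal is fluorescence intensity per feature, in arbitrary units, read on an Axon 4000B scanner. Polyhistidine- and DsRed-tagged transcription factors (N-terminal fusions) from E. coli BL21-CodonPlus were purified on Ni–NTA and applied at 200 nM for 1 h at 25 °C to a double-stranded, BSA-blocked custom Agilent array in buffer with 50 µM zinc acetate.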
As to “TAGATCGAGATGGCTGTCATCATCGGAGCCAAACGATCGACGGAGTCACCTAGTGCAG”, the binding signal is 3260 fluorescence intensity (a.u.). The value for “GCGGGAGGAGGAGGGGAGGGAATCGCAGCTGCTGCGGCGGCGGAGTCACCTAGTGCAG” was 4990 fluorescence intensity (a.u.); that for “GCCGCCGCGTGGAGGCCGAGACGCCGCCGCCGCCGCCACGCGGAGTCACCTAGTGCAG” was 3240 fluorescence intensity (a.u.); that for “GCGCTAATGGACTGCTCTAGCCCTAGCCCTTGCGTGTGCACGGAGTCACCTAGTGCAG” was 3170 fluorescence intensity (a.u.). The value for “CGCATCCCCGACAGGTCGACGCCCTCGTCAGCAACGATGACGGAGTCACCTAGTGCAG” was 7100 fluorescence intensity (a.u.). Then “CGTAAATGCCACCGCACTACCACTTCAATCCCTCCCTCTCCGGAGTCACCTAGTGCAG”, with 3350 fluorescence intensity (a.u.). “GTGCTTTACGATTCGCGCTGGCTGCGTGGCCCCACCCGTCCGGAGTCACCTAGTGCAG”: the binding signal was 3970 fluorescence intensity (a.u.). For “CGAGATCAGCCTACCAGCATGACGCGTGTTCGCGAAGGACCGGAGTCACCTAGTGCAG”, the binding signal is 5310 fluorescence intensity (a.u.).

Consider “TTCAGATGTACAATTTTGCTGGATTACTAGTAGTTTTCTTCGGAGTCACCTAGTGCAG”, for which the binding signal is 17600 fluorescence intensity (a.u.). Then “GGGGATCGACTACGACGATGCCTTCGCTCCCGTGGCACGGCGGAGTCACCTAGTGCAG”, with 3180 fluorescence intensity (a.u.). With “CCGCCGCCGCCGCCGCCGCCGCCATTGCCGATGCCGCCCTCGGAGTCACCTAGTGCAG”, the binding signal was 3800 fluorescence intensity (a.u.). As for “TGTTGAGTCGATTCAGAGAACCACGTAGTGTTGGTACACTCGGAGTCACCTAGTGCAG”, the binding signal is 3180 fluorescence intensity (a.u.).

Regarding “TAGCAAAGTTTGCCAAAATTGTATTGGTTGATGTGTATTGCGGAGTCACCTAGTGCAG”, the binding signal is 3150 fluorescence intensity (a.u.).

Turning to “GATAGAATCTTTCACCTCACAAGGGGTGGCATAAGCAAGGCGGAGTCACCTAGTGCAG”, the binding signal was 7300 fluorescence intensity (a.u.). The value for “GGGGTAGGGTTTGCATGCTTGAGTTCATAGGGTACGTCGCCGGAGTCACCTAGTGCAG” was 3620 fluorescence intensity (a.u.). Then “AGGAGAAAGGCCGGCGAAGTGCCACGTGTCCACGACGGCCCGGAGTCACCTAGTGCAG”, with 28600 fluorescence intensity (a.u.); and “ACACTCAAAAGAACATGTACCTTCTCGTCAACATCATATACGGAGTCACCTAGTGCAG”, with 3400 fluorescence intensity (a.u.); and “TCTCTCCTCTTCCAAAATGTCTCCCGACGCCGACGCGGCGCGGAGTCACCTAGTGCAG”, with 3550 fluorescence intensity (a.u.). On to “TATTATCAAGGATCTTATGTTGCAGCGTGACAAAGCAGTACGGAGTCACCTAGTGCAG”, for which the binding signal was 3360 fluorescence intensity (a.u.). On to “CGCTGCCTCAGTCGTCTCGTCTCGTCACGACAGCACAGTACGGAGTCACCTAGTGCAG”, for which the binding signal is 4940 fluorescence intensity (a.u.). For “TGATACATTACTCAAGGAAACAGTCACACAGTCTATCACGCGGAGTCACCTAGTGCAG”, the binding signal is 3200 fluorescence intensity (a.u.). For “GCCCACGTGGCACGCTGACGTGTCCACCTGCCGCGCCGGTCGGAGTCACCTAGTGCAG”, the binding signal is 26900 fluorescence intensity (a.u.). Then “ACGAGATCATCATCTGTAGTTCTTTTGTTGTGCTTTTCATCGGAGTCACCTAGTGCAG”, with 3320 fluorescence intensity (a.u.).

In the case of “AGAACTCAACTGGACACACAGTCACAGACAGTGGGCCCTGCGGAGTCACCTAGTGCAG”, the binding signal is 3560 fluorescence intensity (a.u.). Turning to “CTCCTACCTCTACCGCTGCTACTCACCACACCAGCCGCCGCGGAGTCACCTAGTGCAG”, the binding signal is 24200 fluorescence intensity (a.u.). For “CCCCTCGCGTCAACACCACCGCGCGCACGCGCTGCTCCTGCGGAGTCACCTAGTGCAG”, the binding signal is 4590 fluorescence intensity (a.u.). The value for “AGTACATAATTACGCACATGTGACACACACCACACATACTCGGAGTCACCTAGTGCAG” was 3140 fluorescence intensity (a.u.).

Turning to “CTACCCCGTTGTCGACTACGTGTTGGTGTTCCATGTCGCCCGGAGTCACCTAGTGCAG”, the binding signal is 6370 fluorescence intensity (a.u.).

Regarding “CGCGGCGGCGGCCGTCTTCTCCTCGTTGCTCAGCTCTGGCCGGAGTCACCTAGTGCAG”, the binding signal is 27300 fluorescence intensity (a.u.). The value for “ACGTATATAAATTTTGTATACACATATGCAAACTTTGTATCGGAGTCACCTAGTGCAG” was 3920 fluorescence intensity (a.u.); that for “GGATCGAAACTTGTGTTAAACACGTCAACTTCATGCATCTCGGAGTCACCTAGTGCAG” was 3310 fluorescence intensity (a.u.); that for “ATTACTCTTTGTAATGTTTCAGTGCAGCTCCTTTGTGATACGGAGTCACCTAGTGCAG” was 3850 fluorescence intensity (a.u.). The value for “AGTCGGAAGGCCACCACATCTGCATGCCATTCTCGTCATTCGGAGTCACCTAGTGCAG” was 4590 fluorescence intensity (a.u.); that for “TAAAGTTGTATTTAATGAAACTAGTTTGGTGTTATAAATGCGGAGTCACCTAGTGCAG” was 30400 fluorescence intensity (a.u.); that for “TGTGCCCGAGGACATGGCGATTGCTGAGGAAATGGCACTGCGGAGTCACCTAGTGCAG” was 3210 fluorescence intensity (a.u.). Then “GTTCAGAATCAGAACTCCGTTTTAATTTGTTCATTAAAGACGGAGTCACCTAGTGCAG”, with 21400 fluorescence intensity (a.u.). Turning to “ATAAGATCACTGATGACACAACACATATGGTTCTTGCAGTCGGAGTCACCTAGTGCAG”, the binding signal was 5070 fluorescence intensity (a.u.). The value for “CACACACTACTCCCGCCACGTGGCACGCTCCCACTGGACCCGGAGTCACCTAGTGCAG” was 26300 fluorescence intensity (a.u.). As to “GGCTATTGGGAGCCACGTCAGCCGGTGGCCTCCGCCATCGCGGAGTCACCTAGTGCAG”, the binding signal was 22600 fluorescence intensity (a.u.).

Take “AACAGCAGGCCCCACGTGTCACCGACCCGCCTCCCACGTTCGGAGTCACCTAGTGCAG”: the binding signal was 12500 fluorescence intensity (a.u.).

As to “ATTGACCGCTTCTGTGATTCGTGATTGGGCTATTTGTAATCGGAGTCACCTAGTGCAG”, the binding signal is 3310 fluorescence intensity (a.u.).

In the case of “GCAGTACGGCAGTAGGTCTGACTCACGCGTCCACGAAAATCGGAGTCACCTAGTGCAG”, the binding signal is 3940 fluorescence intensity (a.u.).
